Test results from the supplement of paper PMC12024529.
Where a name gives a salt, the structure may show the parent alone. This is one part of the list. Baselines shift from plate to plate; read single values as rough.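 HEK293 lines stably express B-domain-deleted factor VIII fused to Gaussia luciferase, wild type or a misfolding-prone missense mutant. Scores equal triplicate-well mean luminescence minus DMSO mean, divided by DMSO standard deviation; scores of 2 or higher are hits. Low scores may indicate reduced secretion or worse cell viability.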

Tested on: HEK293 WT BDD-FVIII-Gluc
Test: secreted FVIII-Gluc luciferase Z-score vs DMSO control; higher = more FVIII-Gluc secretion
Details: 5 µM; 24 h

Q: With `CC1(C)S[C@@H]2[C@H](NC(=O)[C@H](NC(=O)N3CCNC3=O)c3ccccc3)C(=O)N2[C@H]1C(=O)O` [Azlocillin sodium salt] as the compound, how does the “secreted FVIII-Gluc luciferase Z-score” value read?
A: Its value is inactive: -1.31.

Q: For `Cc1[nH]c(=O)c(C#N)cc1-c1ccncc1` [Milrinone (Primacor)], which “secreted FVIII-Gluc luciferase Z-score” value is on record?
A: The value was active: 2.64.

Q: Which “secreted FVIII-Gluc luciferase Z-score” value does the source give for `CCn1cc(C(=O)O)c(=O)c2cc(F)c(N3CCNCC3)nc21` [Enoxacin (Penetrex)] here?
A: Its value is inactive: -1.24.

Q: With `Nc1nc(Cl)nc2c1ncn2[C@@H]1O[C@H](CO)[C@@H](O)[C@@H]1F` [Clofarabine] as the compound, how does the “secreted FVIII-Gluc luciferase Z-score” value read?
A: The value was inactive: -4.31.

Q: Which “secreted FVIII-Gluc luciferase Z-score” value does the source give for `CCOC(=O)c1ccc(N)cc1` [Benzocaine] here?
A: Its value is inactive: -2.2.

Q: `C=C[C@]1(C)C[C@@H](OC(=O)CS[C@@H]2C[C@H]3CC[C@@H](C2)N3C)[C@]2(C)[C@H](C)CC[C@]3(CCC(=O)[C@H]32)[C@@H](C)[C@@H]1O` [Retapamulin] was tested. Which “secreted FVIII-Gluc luciferase Z-score” value did it give?
A: The value was inactive: -0.745.

Q: With `CO[C@@]1(NC(=O)C(C(=O)O)c2ccc(O)cc2)C(=O)N2C(C(=O)O)=C(CSc3nnnn3C)CO[C@@H]21` (stereo not given in full) [Moxalactam Disodium] as the compound, how does the “secreted FVIII-Gluc luciferase Z-score” value read?
A: Its value is inactive: 0.736.

Tested on: HEK293 p.N1941S BDD-FVIII-Gluc
Test: as above
Details: 5 µM; 24 h

Q: How did the “secreted FVIII-Gluc luciferase Z-score” value turn out when `Cc1cccc(C)c1NC(=O)C1CCCCN1C` (stereo not given) [Mepivacaine HCl] was run?
A: The value was inactive: -0.792.

Q: With `N=C(N)NC(=N)N1CCOCC1` [Moroxydine] as the compound, how does the “secreted FVIII-Gluc luciferase Z-score” value read?
A: The value was inactive: -0.587.

Q: With `O=C1O[C@H]([C@@H](O)CO)C([O-])=C1O.[Na+]` [Sodium ascorbate] as the compound, how does the “secreted FVIII-Gluc luciferase Z-score” value read?
A: Its value is inactive: 0.444.

Q: Which “secreted FVIII-Gluc luciferase Z-score” value does the source give for `CCCS(=O)(=O)Nc1ccc(F)c(C(=O)c2c[nH]c3ncc(-c4ccc(Cl)cc4)cc23)c1F` [Vemurafenib (PLX4032)] here?
A: The value was inactive: -1.5.

Q: How did the “secreted FVIII-Gluc luciferase Z-score” value turn out when `CCCCNc1cc(C(=O)O)cc(S(N)(=O)=O)c1Oc1ccccc1` [Bumetanide] was run?
A: The value was inactive: -6.52.

Q: With `Cc1ccc(C(=O)c2cc(O)c(O)c([N+](=O)[O-])c2)cc1` [Tolcapone] as the compound, how does the “secreted FVIII-Gluc luciferase Z-score” value read?
A: The value was inactive: -1.13.

Q: How did the “secreted FVIII-Gluc luciferase Z-score” value turn out when `COc1cccc2c1C(=O)c1c(O)c3c(c(O)c1C2=O)C[C@@](O)(C(=O)CO)C[C@@H]3O[C@H]1C[C@H](N)[C@H](O)[C@H](C)O1` [Doxorubicin (Adriamycin)] was run?
A: The value was inactive: -11.6.

Q: For `CC(C)(Oc1ccc(CCNC(=O)c2ccc(Cl)cc2)cc1)C(=O)O` [Bezafibrate], which “secreted FVIII-Gluc luciferase Z-score” value is on record?
A: Its value is active: 3.07.

Q: Which “secreted FVIII-Gluc luciferase Z-score” value does the source give for `OCC(O)CN1CCN(c2ccccc2)CC1` (stereo not given) [Dropropizine] here?
A: Its value is inactive: 0.297.

Q: Which “secreted FVIII-Gluc luciferase Z-score” value does the source give for `CCOC(=O)C1=C(COCCN)NC(C)=C(C(=O)OC)C1c1ccccc1Cl` (stereo not given) [Amlodipine besylate (Norvasc)] here?
A: Its value is inactive: -1.2.

Q: How did the “secreted FVIII-Gluc luciferase Z-score” value turn out when `CC(C(=O)O)c1ccc2c(c1)[nH]c1ccc(Cl)cc12` (stereo not given) [Carprofen] was run?
A: The value was inactive: -0.256.

Q: With `CC(C)C[C@H](NC(=O)[C@H](CCc1ccccc1)NC(=O)CN1CCOCC1)C(=O)N[C@@H](Cc1ccccc1)C(=O)N[C@@H](CC(C)C)C(=O)[C@@]1(C)CO1` [Carfilzomib (PR-171)] as the compound, how does the “secreted FVIII-Gluc luciferase Z-score” value read?
A: Its value is inactive: -3.22.

Q: With `CCc1ccc(CCOc2ccc(CC3SC(=O)NC3=O)cc2)nc1` (stereo not given) [Pioglitazone hydrochloride (Actos)] as the compound, how does the “secreted FVIII-Gluc luciferase Z-score” value read?
A: The value was inactive: -2.6.

Q: `CCS(=O)(=O)CCn1c([N+](=O)[O-])cnc1C` [tinidazole] was tested. Which “secreted FVIII-Gluc luciferase Z-score” value did it give?
A: The value was inactive: 0.59.

Q: `c1ccc2[nH]c(-c3cscn3)nc2c1` [Thiabendazole] was tested. Which “secreted FVIII-Gluc luciferase Z-score” value did it give?
A: Its value is inactive: -0.149.

Q: With `CCN(CC)CCNC(=O)c1c(C)[nH]c(/C=C2\C(=O)Nc3ccc(F)cc32)c1C` [Sunitinib Malate (Sutent)] as the compound, how does the “secreted FVIII-Gluc luciferase Z-score” value read?
A: The value was inactive: -7.9.

Q: With `Oc1c(Br)cc(Br)c2cccnc12` [Broxyquinoline] as the compound, how does the “secreted FVIII-Gluc luciferase Z-score” value read?
A: The value was inactive: -0.279.

Q: With `Cc1cc(C(C)(C)C)cc(C)c1CC1=NCCN1` [Xylometazoline HCl] as the compound, how does the “secreted FVIII-Gluc luciferase Z-score” value read?
A: The value was inactive: 0.509.

Q: How did the “secreted FVIII-Gluc luciferase Z-score” value turn out when `CN(CCOc1ccc(CC2SC(=O)NC2=O)cc1)c1ccccn1` (stereo not given) [Rosiglitazone HCl] was run?
A: The value was inactive: 0.132.

Q: `CC(C)(C)NC(=O)[C@H]1CC[C@H]2[C@@H]3CC[C@H]4NC(=O)C=C[C@]4(C)[C@H]3CC[C@]12C` [Finasteride] was tested. Which “secreted FVIII-Gluc luciferase Z-score” value did it give?
A: The value was inactive: -0.542.

Q: How did the “secreted FVIII-Gluc luciferase Z-score” value turn out when `CCC[C@@H]1C[C@@H](C(=O)N[C@@H]([C@H]2O[C@H](SC)[C@H](O)[C@@H](O)[C@H]2O)[C@@H](C)O)N(C)C1` [Lincomycin hydrochloride (Lincocin)] was run?
A: Its value is inactive: -0.969.

Q: How did the “secreted FVIII-Gluc luciferase Z-score” value turn out when `CN1CCN(CCCN2c3ccccc3Sc3ccc(Cl)cc32)CC1` [Prochlorperazine Dimaleate] was run?
A: Its value is inactive: 1.44.

Q: Which “secreted FVIII-Gluc luciferase Z-score” value does the source give for `CO/N=C(\C(=O)N[C@@H]1C(=O)N2C(C(=O)O)=C(CSC(=O)c3ccco3)CS[C@H]12)c1csc(N)n1` [Ceftiofur HCl] here?
A: Its value is inactive: -0.485.

Q: Which “secreted FVIII-Gluc luciferase Z-score” value does the source give for `O=C1c2ccccc2C(=O)C1c1ccccc1` [Phenindione (Rectadione)] here?
A: The value was inactive: 0.863.

Q: For `CCNC(=O)CCC/C=C\C[C@@H]1[C@@H](/C=C/[C@@H](O)CCc2ccccc2)[C@H](O)C[C@@H]1O` [Bimatoprost], which “secreted FVIII-Gluc luciferase Z-score” value is on record?
A: The value was inactive: -0.263.

Q: How did the “secreted FVIII-Gluc luciferase Z-score” value turn out when `COCCc1ccc(OCC(O)CNC(C)C)cc1` (stereo not given) [Metoprolol tartrate] was run?
A: Its value is inactive: -0.114.

Q: How did the “secreted FVIII-Gluc luciferase Z-score” value turn out when `CCCNC(C)C(=O)Nc1ccccc1C` (stereo not given) [Prilocaine] was run?
A: The value was inactive: 0.215.

Q: `C[C@H](Cc1cc2c(c(C(N)=O)c1)N(CCCO)CC2)NCCOc1ccccc1OCC(F)(F)F` [Silodosin (Rapaflo)] was tested. Which “secreted FVIII-Gluc luciferase Z-score” value did it give?
A: The value was inactive: -3.52.

Q: With `CSc1ccc2c(c1)N(CCC1CCCCN1C)c1ccccc1S2` (stereo not given) [Thioridazine HCl] as the compound, how does the “secreted FVIII-Gluc luciferase Z-score” value read?
A: The value was inactive: -1.69.

Q: With `CCC(NC(C)C)C(O)c1ccc(O)c(O)c1` (stereo not given) [Isoetharine Mesylate] as the compound, how does the “secreted FVIII-Gluc luciferase Z-score” value read?
A: The value was inactive: 0.965.

Q: With `CC(=O)Nc1ncc([N+](=O)[O-])s1` [Nithiamide] as the compound, how does the “secreted FVIII-Gluc luciferase Z-score” value read?
A: The value was inactive: -0.787.

Q: With `CC1(C)S[C@@H]2[C@H](NC(=O)[C@H](NC(=O)N3CCNC3=O)c3ccccc3)C(=O)N2[C@H]1C(=O)O` [Azlocillin sodium salt] as the compound, how does the “secreted FVIII-Gluc luciferase Z-score” value read?
A: Its value is inactive: -0.0124.

Q: `Cc1[nH]c(=O)c(C#N)cc1-c1ccncc1` [Milrinone (Primacor)] was tested. Which “secreted FVIII-Gluc luciferase Z-score” value did it give?
A: Its value is inactive: -1.34.

Q: For `CCn1cc(C(=O)O)c(=O)c2cc(F)c(N3CCNCC3)nc21` [Enoxacin (Penetrex)], which “secreted FVIII-Gluc luciferase Z-score” value is on record?
A: The value was inactive: -1.17.

Q: For `Nc1nc(Cl)nc2c1ncn2[C@@H]1O[C@H](CO)[C@@H](O)[C@@H]1F` [Clofarabine], which “secreted FVIII-Gluc luciferase Z-score” value is on record?
A: Its value is inactive: -12.4.

Q: For `CCOC(=O)c1ccc(N)cc1` [Benzocaine], which “secreted FVIII-Gluc luciferase Z-score” value is on record?
A: The value was inactive: -1.23.

Q: Which “secreted FVIII-Gluc luciferase Z-score” value does the source give for `C=C[C@]1(C)C[C@@H](OC(=O)CS[C@@H]2C[C@H]3CC[C@@H](C2)N3C)[C@]2(C)[C@H](C)CC[C@]3(CCC(=O)[C@H]32)[C@@H](C)[C@@H]1O` [Retapamulin] here?
A: Its value is inactive: -1.65.

Q: `CO[C@@]1(NC(=O)C(C(=O)O)c2ccc(O)cc2)C(=O)N2C(C(=O)O)=C(CSc3nnnn3C)CO[C@@H]21` (stereo not given in full) [Moxalactam Disodium] was tested. Which “secreted FVIII-Gluc luciferase Z-score” value did it give?
A: Its value is inactive: 1.75.
